{
  "source": "patent US20220193441A1",
  "about": "“ENERGY AUGMENTATION STRUCTURES, EMITTERS OR COLLECTORS, FOR USE IN NON-INVASIVE IN-SITU PHOTOBIOMODULATION” (IMMUNOLIGHT, LLC, priority 2019, published 2022)",
  "origin": "cited, not measured here",
  "key": {"[1]": {"details": "clinical studies, 652 nm light"}, "tumors": {"tested_on": "tumors", "details": "in vivo"}},
  "note": "For at least one compound, name, drawing or mass did not settle the structure.",
  "data": [
    {"smiles": "Oc1cccc(-c2c3nc(c(-c4cccc(O)c4)c4ccc([nH]4)c(-c4cccc(O)c4)c4nc(c(-c5cccc(O)c5)c5ccc2[nH]5)CC4)C=C3)c1", "note": "[Foscan, Tetra (m-hydroxyphenyl) chlorin]", "values": [
      {"measurement": "tissue effect", "setting": "[1]", "value": "up to 10 mm"},
      {"measurement": "selectivity for tumors compared to normal tissues", "setting": "tumors", "value": "more selectively a photosensitizer in tumors than normal tissues"}
    ]}
  ]
}
